The other results are listed elsewhere or left out.

Amino acid sequences for entries named in this document (tags omitted).
UniProt Q0JBA9, entry or part of it: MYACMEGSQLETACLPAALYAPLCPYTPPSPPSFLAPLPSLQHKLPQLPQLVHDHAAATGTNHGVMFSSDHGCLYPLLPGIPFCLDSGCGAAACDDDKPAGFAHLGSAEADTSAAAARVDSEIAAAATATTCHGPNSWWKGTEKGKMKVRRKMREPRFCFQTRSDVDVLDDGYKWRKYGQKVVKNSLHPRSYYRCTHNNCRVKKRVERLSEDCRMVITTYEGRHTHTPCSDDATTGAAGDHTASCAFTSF

The assay deals with OsWRKY34 (Oryza sativa, UniProt Q0JBA9 1-250). The experiment in a line: protein-binding microarray (RPBM); PBS, 2% BSA, 51.3 ng/ul salmon testes DNA, 50 uM zinc acetate, 200 nM TF, 25 C, 1 h; high values mean tight binding. The settings on record: protein: recombinant; tags: N-terminal polyhistidine and DsRed monomer fusion (pET32a); label: CyDye5-dUTP incorporated in the synthesized complementary strand; 3' TTTTT single-stranded linker to array surface; dsDNA, one strand shown. In a few lines:
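The binding signal is fluorescence intensity per array feature (arbitrary units). Readings came from an Axon 4000B scanner after a washed, 2% BSA-blocked, double-stranded custom Agilent array had been incubated for 1 h at 25 °C with 200 nM protein and 50 µM zinc acetate. The protein was a Ni–NTA-purified transcription factor fused N-terminally to polyhistidine and DsRed, expressed in E. coli BL21-CodonPlus.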
For the sequence “CGAATACCCACCCTGTTCCACCCTTTCCATTATGCATCCACGGAGTCACCTAGTGCAG”, the binding signal is 9490 fluorescence intensity (a.u.).

Regarding “GCTATGCTTCTGTTTTTTTGTTTGTTTTTCAGGTGCACAACGGAGTCACCTAGTGCAG”, the binding signal was 8200 fluorescence intensity (a.u.).

As to “ACTGTAATGAGCACTGCCCGTTAGCCCTTTTGCTTCATATCGGAGTCACCTAGTGCAG”, the binding signal was 10500 fluorescence intensity (a.u.).

Consider “GATCCTCTCGTCGGATGGGTTGGGCTATACGGTTCTAGAGCGGAGTCACCTAGTGCAG”, for which the binding signal is 9460 fluorescence intensity (a.u.).

For “GCAGTTATGGGTTTCTTTGTTCAACGATTGACCGTCTATCCGGAGTCACCTAGTGCAG”, the binding signal was 12600 fluorescence intensity (a.u.).

For “GGGCATTTATGTCCTTTTGAAATTTCTATCTCCTCTTTTTCGGAGTCACCTAGTGCAG”, the binding signal is 8180 fluorescence intensity (a.u.).

Take “ATATTCGAAGTTCATTTGGTCTGATGCATACTGTTCTTATCGGAGTCACCTAGTGCAG”: the binding signal is 10900 fluorescence intensity (a.u.).

As to “TCTATCATGTTAAACACATTTACTTCTTCAGTTGTACATTCGGAGTCACCTAGTGCAG”, the binding signal is 9450 fluorescence intensity (a.u.).

In the case of “AACTCTCCTCCGCCTCCTCTCACCGCCGCCTCACGCACTTCGGAGTCACCTAGTGCAG”, the binding signal is 8980 fluorescence intensity (a.u.).

For “TGTTCTTCTCTTTGTCTGCTTCTGCCACCTTTGAAAGGTTCGGAGTCACCTAGTGCAG”, the binding signal was 8300 fluorescence intensity (a.u.).

For “CAATTTTCTGGCGAACTGTGTTTTTTTTTGTCTACATTTACGGAGTCACCTAGTGCAG”, the binding signal is 9490 fluorescence intensity (a.u.).

Regarding “TTTAAGTTTCGACAAGGGGTGGGTGATGCCATGGGAGGGCCGGAGTCACCTAGTGCAG”, the binding signal is 10900 fluorescence intensity (a.u.).

As for “GTTTTGCCCGCCTCCGCCCACGCGTCCCTTGTTGCCACGCCGGAGTCACCTAGTGCAG”, the binding signal is 10300 fluorescence intensity (a.u.).

With “AACGGTTTATATGATGTGCTGCTGACTCACTCATTATTCTCGGAGTCACCTAGTGCAG”, the binding signal was 11600 fluorescence intensity (a.u.).

With “CTAACCACCACCATCAACTCATTCAACTGCCAAAAGCGTCCGGAGTCACCTAGTGCAG”, the binding signal was 9020 fluorescence intensity (a.u.).

In the case of “CCTTTCTGAAACCTGCATGATCATGTACCACTTAAACTGTCGGAGTCACCTAGTGCAG”, the binding signal was 8920 fluorescence intensity (a.u.).

For the sequence “AAAAACGTTTGACCGGGTCATTGTCTTATTTTTAAATAATCGGAGTCACCTAGTGCAG”, the binding signal was 12600 fluorescence intensity (a.u.).

Consider “ACTTCCAGGTTTTCATGACCCTACATGTCATAGTCATTTGCGGAGTCACCTAGTGCAG”, for which the binding signal is 8520 fluorescence intensity (a.u.).

Regarding “TTGTTTATTTATTCTTTATATTTACGACCATACAGGTTCACGGAGTCACCTAGTGCAG”, the binding signal was 8110 fluorescence intensity (a.u.).

Turning to “GTCCTTTTTTCCTCTTTTTTAATACCTTATTCGTTTCAAACGGAGTCACCTAGTGCAG”, the binding signal was 11400 fluorescence intensity (a.u.).

Regarding “CTATATATCGGTAGACCGCTGCTCTTTTATCTTATTTTTTCGGAGTCACCTAGTGCAG”, the binding signal was 15400 fluorescence intensity (a.u.).

“CTCACTCCCTCTCACTCTCTTGTCTCCACTCTCCTCTCCTCGGAGTCACCTAGTGCAG”: the binding signal is 10800 fluorescence intensity (a.u.).

As to “AGCAGCTTCATCTTTTGGCTTCATTTAAAGCTATAGCTTTCGGAGTCACCTAGTGCAG”, the binding signal was 9980 fluorescence intensity (a.u.).

For the sequence “GTCTGCAGCTCCACTTATGTATAGTGATCTTAATGTTTCACGGAGTCACCTAGTGCAG”, the binding signal is 10200 fluorescence intensity (a.u.).

For the sequence “TCTGCAGTCTGTGTCGTCTCCTCCGGTCCTTGCGCGCAAGCGGAGTCACCTAGTGCAG”, the binding signal is 13600 fluorescence intensity (a.u.).

As to “GCTACTATTGCATGCATATATTCCCTCCGTCTCAAAATATCGGAGTCACCTAGTGCAG”, the binding signal was 8350 fluorescence intensity (a.u.).

On to “TATATATATATATATATATATAATTCGTTTGTGGTACATACGGAGTCACCTAGTGCAG”, for which the binding signal was 9710 fluorescence intensity (a.u.).

Consider “ACTTCACCAGTTCACCACCGTGGCACTCCCTGGGACTGAACGGAGTCACCTAGTGCAG”, for which the binding signal was 10800 fluorescence intensity (a.u.).

Take “CTGTTCTGGTCTGCAAATATTTTTTTCTCTTTTTTTTTTTCGGAGTCACCTAGTGCAG”: the binding signal was 15700 fluorescence intensity (a.u.).

For the sequence “CATTTTGTCCCAGAAATGCCATCACCGTCACTTTTACTCTCGGAGTCACCTAGTGCAG”, the binding signal is 9160 fluorescence intensity (a.u.).

On to “AGCTGTCAGACAACCATTGCTACCGAACATCCCTATAAGCCGGAGTCACCTAGTGCAG”, for which the binding signal was 8420 fluorescence intensity (a.u.).

As for “GGGGTGGGCATGGCGGCTCGTAGGCACTGAGGCAGGGCGTCGGAGTCACCTAGTGCAG”, the binding signal was 8780 fluorescence intensity (a.u.).

As for “CCTGTCAAAATCCTACGTATTTTCTATTCCTCTGTTTTTCCGGAGTCACCTAGTGCAG”, the binding signal was 12400 fluorescence intensity (a.u.).

Regarding “ATTTAGAACAACATTTTACTGTTCGGCGCAACTTGCTTTTCGGAGTCACCTAGTGCAG”, the binding signal is 8170 fluorescence intensity (a.u.).

Turning to “GTTTACCTCTTGCTGTAATCAACTTGCCCATGTATGTACTCGGAGTCACCTAGTGCAG”, the binding signal was 9960 fluorescence intensity (a.u.).

For the sequence “ATTCGTAGCTACATTTTTCTATTGCCGTTCCAATCTATTGCGGAGTCACCTAGTGCAG”, the binding signal is 8210 fluorescence intensity (a.u.).

As to “GCCCGTTGCTCATCTCTCTCATCGTTTATCGCATTAAAATCGGAGTCACCTAGTGCAG”, the binding signal was 17900 fluorescence intensity (a.u.).

“ACTTGACAGGTAGCTCGGCCTTCTTTTCTCTCTCTCTCTCCGGAGTCACCTAGTGCAG”: the binding signal is 8130 fluorescence intensity (a.u.).

As to “TCTCTCTCTCTCGCACAATCATCGCCGCCACCACCCTCTGCGGAGTCACCTAGTGCAG”, the binding signal is 8120 fluorescence intensity (a.u.).

As for “TCCATGCTATTGAGCTTTCCCAGTCAACGATTTGCCATCGCGGAGTCACCTAGTGCAG”, the binding signal was 9070 fluorescence intensity (a.u.).

Regarding “CTAACAACCTTCTATAGTTCATTTGGTCTCTAACTTCTCACGGAGTCACCTAGTGCAG”, the binding signal was 11300 fluorescence intensity (a.u.).

Take “GCCTTCTAGGGTTTTGTGGCTGGCTTACCCTTATCCCGGCCGGAGTCACCTAGTGCAG”: the binding signal was 9800 fluorescence intensity (a.u.).

Regarding “TTTTGGTTTTTGGGTTAAGGGTGGTTGTGTCTTATATTTTCGGAGTCACCTAGTGCAG”, the binding signal was 10900 fluorescence intensity (a.u.).

For “TTAGCCTTGTGAGCCCCACATATATAAAGCTTGTTGTTTCCGGAGTCACCTAGTGCAG”, the binding signal is 8400 fluorescence intensity (a.u.).

Regarding “CATTATGCGGGGAGTTTTGTCAGTAACTGTGATATCTGGGCGGAGTCACCTAGTGCAG”, the binding signal was 8060 fluorescence intensity (a.u.).

For “TTGCATTTCATCCGGTTCTGAGAGCGTCTCATCGACTCTCCGGAGTCACCTAGTGCAG”, the binding signal is 9700 fluorescence intensity (a.u.).

Consider “ACGTGATAACGACGACATGTTCTCTCTTTTTTTTTTGGGTCGGAGTCACCTAGTGCAG”, for which the binding signal was 8400 fluorescence intensity (a.u.).

“AACAATACGGGAAAAATTGCTTTTACTACCTTCCCATCCTCGGAGTCACCTAGTGCAG”: the binding signal was 8690 fluorescence intensity (a.u.).

For “AATATAACACCATACTTGGCTGCTGGGTTGGGTTGGAGTACGGAGTCACCTAGTGCAG”, the binding signal was 12700 fluorescence intensity (a.u.).

In the case of “TGTGGATTTGAATTGTTATGGATTTGAGATTTGGGGATGTCGGAGTCACCTAGTGCAG”, the binding signal was 13400 fluorescence intensity (a.u.).

Turning to “CTTTTATTTAACGGATGTTTCACCATGGTCTTTACTGTAGCGGAGTCACCTAGTGCAG”, the binding signal was 9320 fluorescence intensity (a.u.).

On to “CTCTTGAGTTGACCGTTGTCCGTTGATCGAGTTGTTGATGCGGAGTCACCTAGTGCAG”, for which the binding signal was 9960 fluorescence intensity (a.u.).

In the case of “CTCCATTGTGCTATACTATCACTGCCTTCGCGTGTTTCTTCGGAGTCACCTAGTGCAG”, the binding signal is 8920 fluorescence intensity (a.u.).

Regarding “AGCCGCCACTAGATCTCGCCACCATCACCGACGACGGCGACGGAGTCACCTAGTGCAG”, the binding signal is 8530 fluorescence intensity (a.u.).

These data come from PMC7819943, “Rice protein-binding microarrays: a tool to detect cis-acting elements near promoter regions in rice”.
